Reference: paper PMC6992696, “Supramolecular tholos-like architecture constituted by archaeal proteins without functional annotation” (Scientific Reports, 2020)
No constants are given. Whether binding was seen depends on the method and setting. Some entries that bind do so weakly or less than the wild type. For some assays here: Tags and fused reporters may be left off the sequences shown.

How the values were obtained:
[1] = molecular target: T1, PbaA (PF0015) from Pyrococcus furiosus, full-length (Pyrococcus furiosus) (UniProt Q8U4Q9); test: HS-AFM; purified complexes, side views on bare mica, tapping mode, room temperature, 50 mM Tris-HCl pH 8.0, 150 mM NaCl; both purified
T1 sequence: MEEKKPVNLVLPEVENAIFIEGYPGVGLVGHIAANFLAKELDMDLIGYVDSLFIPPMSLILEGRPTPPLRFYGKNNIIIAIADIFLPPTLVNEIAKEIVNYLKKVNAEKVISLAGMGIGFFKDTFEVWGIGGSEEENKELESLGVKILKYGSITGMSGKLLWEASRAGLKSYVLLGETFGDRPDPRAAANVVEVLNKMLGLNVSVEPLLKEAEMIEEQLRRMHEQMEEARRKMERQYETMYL

[2] = molecular target: T1, PbaA (PF0015) from Pyrococcus furiosus, full-length (Pyrococcus furiosus); test: negative stain EM; purified complexes at 1.0 mg/ml in 50 mM Tris-HCl pH 8.0, 150 mM NaCl, 2% uranyl acetate, single-particle analysis; both purified
[3] = molecular target: T1, PbaA (PF0015) from Pyrococcus furiosus, full-length (Pyrococcus furiosus); test: SEC; 400 μM monomer of each protein mixed 1:1, dialyzed 12 h against 50 mM Tris-HCl pH 8.0, 200 mM NaCl, 2 mM DTT; HiTrapQ HP and HiLoad Superdex 200; both purified
[4] = molecular target: T1, PbaA (PF0015) from Pyrococcus furiosus, full-length (Pyrococcus furiosus); test: iCM-SANS; complex of non-deuterated PbaA and 75%-deuterated PF0014, 3 mg/ml in 99.8% D2O, 50 mM Tris-HCl pH 8.0, 150 mM NaCl, 25 °C; both purified
[5] = molecular target: T1, PbaA (PF0015) from Pyrococcus furiosus, full-length (Pyrococcus furiosus); test: SEC + other: SAXS; SEC-SAXS of the equimolar PbaA/PF0014 mixture; 50 μL of 6 mg/ml on Superdex 200 Increase 10/300 GL, 50 mM Tris-HCl pH 8.0, 150 mM NaCl; both purified
[6] = molecular target: T2, N-terminally hexahistidine-tagged PbaA (Pyrococcus furiosus) (UniProt Q8U4Q9); test: cryo-EM structure; hexahistidine-tagged PbaA/Trx-PF0014 complex treated with excess anti-histidine-tag monoclonal antibody for 2 h at 4 °C; map at 14 Å, C1 symmetry; both purified
T2 sequence: T1 sequence

Measured: binding

B1: PF0014 from Pyrococcus furiosus (natural protein, UniProt Q8U4R0 1-128, looked up)
chain: MVVEIPLLSGIARRTLDALMRNPIRTVEIRNARNYMTLEKVKEGDLVFLTYESLEDVMRGTEGIIAMVTRMEKSHQRVPWEESDEREISICRVQLKLVGLGRVVEVQEKNGVVFVKVREMLHHEISMG
notes: PF0014, Pyrococcus furiosus, an archaeal protein without functional annotation; Monomeric by HS-AFM when isolated; ten copies in the complex with PbaA
binds: [1] | [2] | [3] | [4] | [5]

B2: Trx-tagged PF0014 (Trx-PF0014) (protein, UniProt Q8U4R0 1-128)
chain: B1 chain
binds: [1] | [2] | [6]
